The supplement of paper PMC10849652
Some of the results follow.

Chains of the proteins cited; added tags and fusions are not shown. Lines headed by an entry give the natural chain unless they say otherwise; changes in a name come on top.
UniProt Q13129: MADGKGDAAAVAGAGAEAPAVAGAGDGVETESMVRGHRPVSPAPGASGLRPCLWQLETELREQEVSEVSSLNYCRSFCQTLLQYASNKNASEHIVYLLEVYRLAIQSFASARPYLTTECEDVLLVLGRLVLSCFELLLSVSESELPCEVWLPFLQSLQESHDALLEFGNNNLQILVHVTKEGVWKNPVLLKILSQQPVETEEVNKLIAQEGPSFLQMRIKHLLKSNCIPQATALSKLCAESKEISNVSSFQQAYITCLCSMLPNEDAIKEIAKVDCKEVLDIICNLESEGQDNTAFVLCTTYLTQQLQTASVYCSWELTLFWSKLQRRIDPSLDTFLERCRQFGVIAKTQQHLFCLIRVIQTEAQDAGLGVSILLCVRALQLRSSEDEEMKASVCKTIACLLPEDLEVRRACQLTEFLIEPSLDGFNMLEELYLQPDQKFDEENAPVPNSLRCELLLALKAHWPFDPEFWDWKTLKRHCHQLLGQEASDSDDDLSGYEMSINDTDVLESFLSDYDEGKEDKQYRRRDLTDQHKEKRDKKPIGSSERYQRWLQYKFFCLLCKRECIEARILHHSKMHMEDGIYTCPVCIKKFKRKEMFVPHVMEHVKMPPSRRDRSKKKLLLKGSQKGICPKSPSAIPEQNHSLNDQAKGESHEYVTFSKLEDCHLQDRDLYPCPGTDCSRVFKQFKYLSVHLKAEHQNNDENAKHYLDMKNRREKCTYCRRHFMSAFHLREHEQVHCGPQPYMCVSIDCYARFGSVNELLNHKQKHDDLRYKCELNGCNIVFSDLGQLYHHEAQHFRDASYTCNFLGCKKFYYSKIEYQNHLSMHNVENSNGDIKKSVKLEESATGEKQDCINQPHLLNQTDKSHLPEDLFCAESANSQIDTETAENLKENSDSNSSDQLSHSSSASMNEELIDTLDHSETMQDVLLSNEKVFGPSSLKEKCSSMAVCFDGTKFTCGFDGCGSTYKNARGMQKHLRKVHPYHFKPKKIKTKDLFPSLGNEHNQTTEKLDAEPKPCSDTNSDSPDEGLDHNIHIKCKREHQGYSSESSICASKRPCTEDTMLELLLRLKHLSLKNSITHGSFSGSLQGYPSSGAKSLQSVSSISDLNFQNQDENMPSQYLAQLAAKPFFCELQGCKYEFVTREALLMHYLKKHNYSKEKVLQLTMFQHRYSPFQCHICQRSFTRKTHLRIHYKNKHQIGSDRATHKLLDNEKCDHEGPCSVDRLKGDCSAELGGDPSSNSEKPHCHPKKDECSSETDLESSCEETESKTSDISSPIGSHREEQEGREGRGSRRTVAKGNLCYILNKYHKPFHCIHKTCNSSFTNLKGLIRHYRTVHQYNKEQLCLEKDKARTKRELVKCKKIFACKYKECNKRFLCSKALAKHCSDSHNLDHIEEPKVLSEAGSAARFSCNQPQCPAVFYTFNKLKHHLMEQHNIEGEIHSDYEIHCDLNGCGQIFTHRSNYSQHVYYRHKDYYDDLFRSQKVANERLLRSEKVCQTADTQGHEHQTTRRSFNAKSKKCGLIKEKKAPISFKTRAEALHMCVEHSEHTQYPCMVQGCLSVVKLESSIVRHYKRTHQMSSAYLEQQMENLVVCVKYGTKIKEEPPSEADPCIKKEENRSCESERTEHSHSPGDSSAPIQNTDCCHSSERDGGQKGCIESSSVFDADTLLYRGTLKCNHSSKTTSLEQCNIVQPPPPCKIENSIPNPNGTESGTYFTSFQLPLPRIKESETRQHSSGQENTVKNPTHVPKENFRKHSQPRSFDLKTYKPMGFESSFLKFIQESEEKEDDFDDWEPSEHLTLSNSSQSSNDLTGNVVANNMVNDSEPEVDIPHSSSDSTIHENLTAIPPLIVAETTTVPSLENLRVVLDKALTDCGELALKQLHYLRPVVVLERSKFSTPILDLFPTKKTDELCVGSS
UniProt Q99942: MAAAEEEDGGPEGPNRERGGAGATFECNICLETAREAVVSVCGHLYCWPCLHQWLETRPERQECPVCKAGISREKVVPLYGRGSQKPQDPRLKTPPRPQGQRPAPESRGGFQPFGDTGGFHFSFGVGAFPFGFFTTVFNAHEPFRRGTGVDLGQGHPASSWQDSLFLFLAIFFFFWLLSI
UniProt Q96LT9: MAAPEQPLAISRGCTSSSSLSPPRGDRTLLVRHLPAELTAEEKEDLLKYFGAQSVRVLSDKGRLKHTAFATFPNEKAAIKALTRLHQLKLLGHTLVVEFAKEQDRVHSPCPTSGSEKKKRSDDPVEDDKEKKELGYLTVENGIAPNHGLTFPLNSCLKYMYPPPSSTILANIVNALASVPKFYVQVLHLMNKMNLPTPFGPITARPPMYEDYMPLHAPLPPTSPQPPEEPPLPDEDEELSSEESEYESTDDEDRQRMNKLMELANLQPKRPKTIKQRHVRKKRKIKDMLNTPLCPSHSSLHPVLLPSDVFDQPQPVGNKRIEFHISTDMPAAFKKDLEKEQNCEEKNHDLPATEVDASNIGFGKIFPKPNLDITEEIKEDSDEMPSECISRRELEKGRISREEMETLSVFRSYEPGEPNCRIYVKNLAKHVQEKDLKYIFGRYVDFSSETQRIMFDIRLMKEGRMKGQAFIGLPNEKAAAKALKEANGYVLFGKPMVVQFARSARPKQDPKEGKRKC
UniProt O60930: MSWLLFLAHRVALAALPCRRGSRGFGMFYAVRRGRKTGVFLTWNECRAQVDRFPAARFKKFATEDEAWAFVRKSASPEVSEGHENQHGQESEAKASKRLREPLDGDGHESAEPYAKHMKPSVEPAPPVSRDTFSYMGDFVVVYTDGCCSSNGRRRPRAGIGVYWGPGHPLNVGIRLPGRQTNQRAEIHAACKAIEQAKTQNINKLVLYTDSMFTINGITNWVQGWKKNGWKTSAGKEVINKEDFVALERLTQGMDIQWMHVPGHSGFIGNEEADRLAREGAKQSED
UniProt Q8WU17: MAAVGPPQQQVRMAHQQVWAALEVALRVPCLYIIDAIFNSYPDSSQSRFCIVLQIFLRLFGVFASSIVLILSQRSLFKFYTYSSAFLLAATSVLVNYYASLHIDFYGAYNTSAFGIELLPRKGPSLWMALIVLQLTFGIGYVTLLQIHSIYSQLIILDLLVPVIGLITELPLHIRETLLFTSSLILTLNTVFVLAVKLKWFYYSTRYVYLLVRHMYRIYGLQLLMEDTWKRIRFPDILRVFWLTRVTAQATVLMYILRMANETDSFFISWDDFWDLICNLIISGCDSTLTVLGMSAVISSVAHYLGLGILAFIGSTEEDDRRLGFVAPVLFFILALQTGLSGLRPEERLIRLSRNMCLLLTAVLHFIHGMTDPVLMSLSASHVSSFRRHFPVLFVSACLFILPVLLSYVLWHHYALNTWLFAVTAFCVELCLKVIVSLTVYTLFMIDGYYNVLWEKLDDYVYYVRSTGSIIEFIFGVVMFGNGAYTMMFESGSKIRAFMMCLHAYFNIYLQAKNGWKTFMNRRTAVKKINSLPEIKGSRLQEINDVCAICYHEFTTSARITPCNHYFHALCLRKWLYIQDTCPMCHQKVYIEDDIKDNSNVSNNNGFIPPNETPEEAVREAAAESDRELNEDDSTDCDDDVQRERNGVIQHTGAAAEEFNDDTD
UniProt Q9GZN7, whole entry, looked up: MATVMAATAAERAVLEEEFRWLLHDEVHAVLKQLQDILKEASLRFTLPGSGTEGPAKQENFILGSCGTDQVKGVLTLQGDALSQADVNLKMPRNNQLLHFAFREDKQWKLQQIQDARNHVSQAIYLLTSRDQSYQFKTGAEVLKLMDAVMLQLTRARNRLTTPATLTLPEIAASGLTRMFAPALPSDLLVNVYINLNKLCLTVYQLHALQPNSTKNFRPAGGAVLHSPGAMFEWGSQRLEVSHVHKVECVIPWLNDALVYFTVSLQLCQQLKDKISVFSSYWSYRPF
UniProt Q969X0: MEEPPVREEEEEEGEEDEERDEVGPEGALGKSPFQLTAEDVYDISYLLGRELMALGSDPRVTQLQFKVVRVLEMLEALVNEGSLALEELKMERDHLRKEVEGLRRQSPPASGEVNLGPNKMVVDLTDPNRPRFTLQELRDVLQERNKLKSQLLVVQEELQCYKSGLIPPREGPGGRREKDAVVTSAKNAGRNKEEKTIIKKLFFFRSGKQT
UniProt Q9NVW2: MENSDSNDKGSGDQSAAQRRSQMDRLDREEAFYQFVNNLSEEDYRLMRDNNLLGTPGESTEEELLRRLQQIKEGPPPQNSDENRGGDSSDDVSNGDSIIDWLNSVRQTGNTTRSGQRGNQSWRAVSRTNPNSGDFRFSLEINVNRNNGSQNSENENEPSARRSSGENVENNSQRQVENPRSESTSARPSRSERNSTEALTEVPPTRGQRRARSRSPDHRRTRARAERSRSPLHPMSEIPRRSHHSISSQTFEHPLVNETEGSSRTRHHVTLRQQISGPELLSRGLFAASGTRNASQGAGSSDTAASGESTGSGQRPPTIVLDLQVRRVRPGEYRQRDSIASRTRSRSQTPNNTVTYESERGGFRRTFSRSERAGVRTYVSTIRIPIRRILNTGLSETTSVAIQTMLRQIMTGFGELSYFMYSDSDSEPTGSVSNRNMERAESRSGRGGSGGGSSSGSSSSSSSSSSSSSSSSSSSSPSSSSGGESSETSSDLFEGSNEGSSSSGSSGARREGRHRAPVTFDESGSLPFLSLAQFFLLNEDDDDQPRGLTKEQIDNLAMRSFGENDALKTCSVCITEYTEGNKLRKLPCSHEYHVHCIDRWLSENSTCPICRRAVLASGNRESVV
UniProt Q6ZS11: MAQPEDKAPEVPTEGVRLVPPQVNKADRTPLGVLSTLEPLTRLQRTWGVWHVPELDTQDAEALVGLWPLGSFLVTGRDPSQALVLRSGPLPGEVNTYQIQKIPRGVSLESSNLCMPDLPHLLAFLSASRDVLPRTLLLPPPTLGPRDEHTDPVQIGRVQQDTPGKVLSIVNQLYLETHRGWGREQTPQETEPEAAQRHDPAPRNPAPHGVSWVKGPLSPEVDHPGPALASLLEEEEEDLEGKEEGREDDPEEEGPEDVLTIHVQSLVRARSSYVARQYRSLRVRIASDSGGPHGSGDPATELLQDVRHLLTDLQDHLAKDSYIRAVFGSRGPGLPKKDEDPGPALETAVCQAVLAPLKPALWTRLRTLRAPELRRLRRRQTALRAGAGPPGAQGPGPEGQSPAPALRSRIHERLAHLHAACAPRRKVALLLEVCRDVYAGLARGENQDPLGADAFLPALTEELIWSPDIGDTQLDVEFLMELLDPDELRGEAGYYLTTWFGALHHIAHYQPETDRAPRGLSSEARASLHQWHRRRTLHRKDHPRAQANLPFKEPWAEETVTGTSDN
UniProt O76064: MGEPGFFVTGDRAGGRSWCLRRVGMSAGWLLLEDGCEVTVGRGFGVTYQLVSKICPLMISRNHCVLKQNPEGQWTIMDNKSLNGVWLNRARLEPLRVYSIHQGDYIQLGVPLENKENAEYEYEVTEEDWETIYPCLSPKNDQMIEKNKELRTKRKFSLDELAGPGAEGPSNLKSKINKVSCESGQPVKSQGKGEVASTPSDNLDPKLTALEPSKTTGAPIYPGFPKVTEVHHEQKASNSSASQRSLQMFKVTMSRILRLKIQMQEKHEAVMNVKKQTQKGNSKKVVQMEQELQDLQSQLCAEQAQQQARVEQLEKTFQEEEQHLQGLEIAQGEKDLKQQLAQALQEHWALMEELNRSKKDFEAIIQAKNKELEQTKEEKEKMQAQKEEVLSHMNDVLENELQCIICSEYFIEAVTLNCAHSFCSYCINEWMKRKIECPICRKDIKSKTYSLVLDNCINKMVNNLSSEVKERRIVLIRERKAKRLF
UniProt Q9H9Y2: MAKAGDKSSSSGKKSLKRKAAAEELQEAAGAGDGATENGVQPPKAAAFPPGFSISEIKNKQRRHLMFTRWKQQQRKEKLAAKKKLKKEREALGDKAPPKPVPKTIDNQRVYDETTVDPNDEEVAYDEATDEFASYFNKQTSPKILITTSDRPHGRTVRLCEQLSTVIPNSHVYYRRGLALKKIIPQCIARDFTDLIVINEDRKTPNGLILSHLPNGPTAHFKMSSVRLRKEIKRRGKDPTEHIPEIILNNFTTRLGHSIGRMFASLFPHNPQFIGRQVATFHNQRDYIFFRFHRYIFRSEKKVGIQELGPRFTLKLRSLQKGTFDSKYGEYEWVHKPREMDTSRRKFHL
UniProt Q96E14: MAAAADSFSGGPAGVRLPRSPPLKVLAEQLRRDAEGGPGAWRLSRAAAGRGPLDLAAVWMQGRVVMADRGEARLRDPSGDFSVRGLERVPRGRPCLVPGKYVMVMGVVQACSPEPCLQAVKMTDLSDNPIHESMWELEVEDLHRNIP
UniProt Q9H920: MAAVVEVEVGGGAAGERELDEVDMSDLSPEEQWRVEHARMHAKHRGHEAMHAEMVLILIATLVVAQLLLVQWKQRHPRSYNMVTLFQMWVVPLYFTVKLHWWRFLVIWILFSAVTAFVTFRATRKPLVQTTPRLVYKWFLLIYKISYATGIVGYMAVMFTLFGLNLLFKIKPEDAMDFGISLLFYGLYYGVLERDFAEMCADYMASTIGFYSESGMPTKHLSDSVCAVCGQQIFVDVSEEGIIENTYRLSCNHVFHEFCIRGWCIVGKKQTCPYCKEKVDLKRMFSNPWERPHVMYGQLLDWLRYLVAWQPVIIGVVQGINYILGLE

Assays:
Test in all cases: log2 fold change, soluble protein after heating vs DMSO (PISA); higher = thermal stabilisation; K562 lysate, 10 uM; active = over 0.2 and 3.5 SD of the protein, either way, in both replicates (recomputed)
[1] = compound: CCCS(=O)(=O)Nc1ccc(F)c(C(=O)c2c[nH]c3ncc(Cl)cc23)c1F
Outline: (§1)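 Pellets of K562 cells were dounce-homogenised in PBS pH 7.4 with 1 mM MgCl2, and the crude extract was held at 1 mg/mL protein for a 30 min treatment with 10 μM compound. Aliquots were heated for 3 min over 48°C-58°C and pooled before NP-40 was added to 0.5% at 4°C. The supernatant from 21,000xg for 90 min was quantified by TMTpro 16plex LC-MS/MS with channel sums equalised. Values are reported from duplicates as log-two fold change in thermal stability relative to solvent controls.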

volasertib = compound: CC[C@@H]1C(=O)N(C)c2cnc(Nc3ccc(C(=O)N[C@H]4CC[C@H](N5CCN(CC6CC6)CC5)CC4)cc3OC)nc2N1C(C)C [volasertib]
Outline: as §1

[2] = compound: CCn1cc(-c2ccnc3[nH]c(-c4cccc(CN(C)C)c4)cc23)c(-c2ccc(NC(=O)N(C)C)cc2)n1
Outline: as §1

[3] = compound: CN1CCC(CNc2ccc3ncc(-c4cccc(OC(F)(F)F)c4)n3n2)CC1
Outline: as §1

saracatinib = compound: CN1CCN(CCOc2cc(OC3CCOCC3)c3c(Nc4c(Cl)ccc5c4OCO5)ncnc3c2)CC1 [saracatinib]
Outline: as §1

sotrastaurin = compound: CN1CCN(c2nc(C3=C(c4c[nH]c5ccccc45)C(=O)NC3=O)c3ccccc3n2)CC1 [sotrastaurin]
Outline: as §1

barasertib = compound: CCN(CCCOc1ccc2c(Nc3cc(CC(=O)Nc4cccc(F)c4)[nH]n3)ncnc2c1)CCOP(=O)(O)O [barasertib]
Outline: as §1

[4] = compound: CC[C@@H]1C(=O)N(C)c2cnc(Nc3ccc(C(=O)NC4CCN(C)CC4)cc3OC)nc2N1C1CCCC1
Outline: as §1

[5] = compound: CCn1c(C(=O)N(C2CC2)C2CC2)cc2c3c(ncn3C)c(Nc3cc(C)n(C)n3)nc21
Outline: as §1

vemurafenib = compound: CCCS(=O)(=O)Nc1ccc(F)c(C(=O)c2c[nH]c3ncc(-c4ccc(Cl)cc4)cc23)c1F [vemurafenib]
Outline: as §1

Measured: log2 fold change

RLF (UniProt Q13129)
inactive: [1] -0.1 | volasertib 0.162 | [2] -0.121 | [3] -0.019 | saracatinib 0.035 | sotrastaurin -0.044

RNF185 (UniProt Q96GF1)
inactive: [1] -0.045 | barasertib 0.036 | volasertib 0.037 | [2] -0.021 | [3] -0.009

RHPN2 (UniProt Q8IUC4)
inactive: [1] 0 | [4] 0.03 | volasertib -0.163 | [5] 0.078 | sotrastaurin -0.095

RNF130 (UniProt Q86XS8)
inactive: vemurafenib -0.102 | barasertib 0.112 | [2] -0.221 | [3] -0.107 | saracatinib -0.033 | sotrastaurin -0.032

RNF5 (UniProt Q99942)
inactive: barasertib 0.159 | [4] 0.009 | [5] 0.081 | [2] -0.005 | [3] -0.039 | saracatinib -0.02 | sotrastaurin -0.125

RNF4 (UniProt P78317)
inactive: vemurafenib 0.012 | barasertib -0.196 | [4] -0.1 | [5] 0.211 | [2] 0.083 | [3] 0.008 | sotrastaurin -0.184

RNPC3 (UniProt Q96LT9)
inactive: [1] -0.02 | volasertib 0.019 | [5] -0.119 | [2] -0.009 | [3] -0.032 | saracatinib -0.022 | sotrastaurin -0.074

RPGR (UniProt Q92834)
inactive: barasertib 0.036 | sotrastaurin -0.087

RNF41 (UniProt Q9H4P4)
inactive: [5] 0.109 | [2] 0.156 | [3] -0.171 | saracatinib -0.076 | sotrastaurin 0.045

RNASEH1 (UniProt O60930)
inactive: [2] -0.023 | [3] -0.002

RNF24 isoform 2 (UniProt Q9Y225)
inactive: barasertib 0.122 | [2] 0.033 | [3] -0.084 | sotrastaurin 0.025

RNASEH2B, A0A1B0GUE7
inactive: [1] -0.061 | volasertib -0.064

RNF17 (UniProt Q9BXT8)
inactive: [1] 0.022 | barasertib 0.133 | [4] 0.099 | volasertib 0.066 | [5] -0.035 | [2] 0.113 | [3] -0.421 | saracatinib 0.257 | sotrastaurin 0.046

RNF111 isoform 3 (UniProt Q6ZNA4)
inactive: sotrastaurin -0.009

RHOBTB3 (UniProt O94955)
inactive: [4] -0.007

RIMKLB (UniProt Q9ULI2)
inactive: [5] -0.076

RNF139 (UniProt Q8WU17)
inactive: vemurafenib 0.138 | [2] -0.242 | [3] 0.021 | sotrastaurin 0.028

ROGDI (UniProt Q9GZN7)
inactive: [1] -0.032 | barasertib 0.17 | volasertib 0.017 | [5] 0 | [2] -0.076 | [3] 0.05 | saracatinib 0.03 | sotrastaurin -0.1

RHOQ (UniProt P17081)
inactive: vemurafenib 0.054 | [4] -0.077

RPL10, A0A087WV22
inactive: barasertib -0.45 | [5] 0.065 | saracatinib 0.744 | sotrastaurin 0.218

RILPL2 (UniProt Q969X0)
inactive: [1] 0.027 | barasertib -0.069 | volasertib 0.083 | [5] -0.02 | [2] -0.043 | [3] 0.058 | sotrastaurin -0.061

RMND5B (UniProt Q96G75)
inactive: vemurafenib 0.129 | [2] 0.004 | [3] 0.053

RPAIN isoform 8 (UniProt Q86UA6)
inactive: vemurafenib -0.114 | barasertib 0.042 | [4] -0.029 | [2] 0.405 | [3] 0.053

RLIM (UniProt Q9NVW2)
inactive: barasertib 0.065 | sotrastaurin -0.055

RNFT1 (UniProt Q5M7Z0)
inactive: [4] -0.183 | [5] -0.067 | [2] -0.308 | [3] 0.183 | saracatinib -0.059

RNF115 (UniProt Q9Y4L5)
inactive: vemurafenib -0.09 | [2] 0.069 | [3] 0.149 | sotrastaurin -0.015

RINL (UniProt Q6ZS11)
inactive: [1] -0.014 | barasertib -0.114 | [4] -0.239 | volasertib 0.003 | [5] 0.045 | [2] -0.038 | [3] -0.104 | saracatinib 0.076

RPL32 (UniProt D3YTI8)
inactive: [1] -0.058 | volasertib -0.004 | saracatinib 0.002

2 entries drawn at random from those above:
RNF115 (UniProt Q9Y4L5)
inactive: vemurafenib -0.09 | [2] 0.069 | [3] 0.149 | sotrastaurin -0.015

RPL32 (UniProt D3YTI8)
inactive: [1] -0.058 | volasertib -0.004 | saracatinib 0.002

(cont.)

RPL15, A0A2R8Y738
inactive: [1] -0.062 | barasertib -0.222 | volasertib -0.12

RNF8 (UniProt O76064)
inactive: barasertib 0.063 | [4] -0.103 | [5] 0.028 | [2] -0.184 | [3] 0.079 | saracatinib 0.073 | sotrastaurin 0.015

RPF1 (UniProt Q9H9Y2)
inactive: [1] 0.022 | barasertib 0.215 | volasertib -0.134 | [5] -0.223 | sotrastaurin -0.113

RNF169 (UniProt Q8NCN4)
inactive: barasertib -0.014 | [5] 0.143 | saracatinib 0.19 | sotrastaurin -0.079

RNF167 (UniProt Q9H6Y7)
inactive: [1] 0.043 | barasertib 0.003 | volasertib 0.036 | [2] -0.007 | [3] 0.049 | saracatinib 0.06 | sotrastaurin -0.021

ROBO2 isoform 3 (UniProt Q9HCK4)
inactive: [1] 0.071 | volasertib 0.045 | sotrastaurin -0.001
active: [5] 0.523

RNF10 isoform 2 (UniProt Q8N5U6)
inactive: [1] 0.097 | [4] 0.336 | volasertib 0.156 | saracatinib 0.04 | sotrastaurin 0.018

RMI2 (UniProt Q96E14)
inactive: vemurafenib 0.239 | [4] -0.109 | [5] -0.007 | saracatinib -0.008 | sotrastaurin -0.01

RNF121 (UniProt Q9H920)
inactive: [1] -0.2 | barasertib -0.028 | volasertib -0.067 | [5] 0.072 | [2] -0.155 | [3] 0.033 | saracatinib 0.004 | sotrastaurin -0.019
